# PubChem BioAssay AID504744 – Drosophila RNAi Screening Center – 2011
# Aim: 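Identify dsRNAs that increase or decrease phospho-dAkt after insulin treatment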 (primary screen)
# System: Drosophila Kc167 cells
# Knock-down reagent: long dsRNA against Drosophila genes, 250 ng dsRNA per well of a 384-well plate
# Time to read-out: 3 days of knock-down, then overnight serum-free starvation before stimulation
# Conditions: bovine insulin at 387 nM for 10 minutes after 12 h without serum
# Detection: 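In-cell antibody fluorescence for phospho-dAkt in each well over DNA-dye signal, with log2 residuals expressed as z-scores adjusted for cell count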
# Call rule: 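Hit in the insulin screen when the two-replicate mean z-score is more extreme than plus or minus 2.5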
# The screen tested about 23,000 reagents; below is a random part of those with a known target gene and a result. Over the whole deposit, 98 (0.43%) are marked active. 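Only hit calls are given; the phospho-dAkt signals, z-scores and hit direction were not deposited.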 Reagents against one gene are numbered here. A plus sign joins genes that one reagent is predicted to hit.
Gene,reagent,activity call
l(2)34Fd (lethal (2) 34Fd),1,inactive
CG6712,1,inactive
CG6712,2,inactive
Gtpx,1,inactive
Gtpx,2,inactive
Gpo3 (Glycerophosphate oxidase 3),1,inactive
mino (minotaur),1,inactive
Saysd1 (SAYSVFN motif domain containing 1),1,inactive
CG5756,1,inactive
Cpr47Eb (Cuticular protein 47Eb),1,inactive
Fkbp39 (FK506-binding protein 39kD),1,inactive
CG12259,1,inactive
e(r) (enhancer of rudimentary),1,inactive
CG9806,1,inactive
CG18745,1,inactive
CG4984 + CG4975,1,inactive
CG4984 + CG4975,2,inactive
CG5783,1,inactive
CG11362,1,inactive
CG11362,2,inactive
CG16787,1,inactive
nyo (nyobe),1,inactive
nyo (nyobe),2,inactive
CG13751,1,inactive
CG8526,1,inactive
CG16815,1,inactive
Ns3 (Nucleostemin 3),1,inactive
CG3663,1,inactive
eIF1A (eukaryotic translation initiation factor 1A),1,active
NetB (Netrin-B),1,inactive
CG8323,1,inactive
CG15385,1,inactive
tex,1,inactive
CG4476,1,inactive
CG13705,1,inactive
CG13705,2,inactive
CG3165,1,inactive
didum (dilute class unconventional myosin),1,inactive
Xrcc2 (X-ray repair cross complementing 2),1,inactive
lncRNA:bxd (bithoraxoid),1,inactive
CG8388,1,inactive
CG13135,1,inactive
Ldsdh1 (Lipid droplet subset dehydrogenase 1),1,inactive
CG30427,1,inactive
CG30427,2,inactive
CG30427,3,inactive
CG32695,1,inactive
CG11247,1,inactive
CG11247,2,inactive
Gr47a (Gustatory receptor 47a),1,inactive
CG7763,1,inactive
Atg2 (Autophagy-related 2),1,inactive
ApepP (Aminopeptidase P),1,inactive
CG13461,1,inactive
ema (endosomal maturation defective),1,inactive
jagn (jagunal),1,inactive
CG43367,1,inactive
CG43367,2,inactive
CG43367,3,inactive
CG32461,1,inactive
CG3982,1,inactive
bur (burgundy),1,inactive
RpS19a (Ribosomal protein S19a),1,inactive
Slip1 (SLo interacting protein 1),1,inactive
Poxm (Pox meso),1,inactive
Poxm (Pox meso),2,inactive
CG14627,1,inactive
CG12439,1,inactive
Ing5 (Inhibitor of growth family member 5),1,inactive
CG12994,1,inactive
CG12994,2,inactive
CG12426,1,inactive
"Smyd3 (SET and MYND domain containing, class 3)",1,inactive
CG4576,1,inactive
Osi13 (Osiris 13),1,inactive
Arts + Apl,1,inactive
trv (trivet),1,inactive
trv (trivet),2,inactive
trv (trivet),3,inactive
trv (trivet),4,inactive
sut2 (sugar transporter 2),1,inactive
Git (G protein-coupled receptor kinase interacting ArfGAP),1,inactive
CSN7 (COP9 signalosome subunit 7),1,inactive
CSN7 (COP9 signalosome subunit 7),2,inactive
CG6602,1,inactive
vret (vreteno),1,inactive
Ublcp1,1,inactive
Taf5 (TBP-associated factor 5),1,inactive
CG8547,1,inactive
CG13130 (retired record),1,inactive
CG9391,1,inactive
CG42254 (retired record),1,inactive
Gagr (Gag-related),1,inactive
CG42288,1,inactive
Epac (Exchange protein directly activated by cAMP),1,inactive
Epac (Exchange protein directly activated by cAMP),2,inactive
Epac (Exchange protein directly activated by cAMP),3,inactive
CG8236,1,inactive
AttA (Attacin-A),1,inactive
Pdf (Pigment-dispersing factor),1,inactive
GstE12 (Glutathione S transferase E12),1,inactive
Hmt-1 (Heavy metal tolerance factor 1),1,inactive
SelT (Selenoprotein T),1,inactive
CG30440,1,inactive
CG30440,2,inactive
CG30440,3,inactive
CG7886,1,inactive

Entries listed so far whose gene name starts with E or e (6):
Gene,reagent,activity call
e(r) (enhancer of rudimentary),1,inactive
eIF1A (eukaryotic translation initiation factor 1A),1,active
ema (endosomal maturation defective),1,inactive
Epac (Exchange protein directly activated by cAMP),1,inactive
Epac (Exchange protein directly activated by cAMP),2,inactive
Epac (Exchange protein directly activated by cAMP),3,inactive
